The other results are listed elsewhere or left out.

Sequences of proteins named here, by UniProt entry; tags and fusion partners are left off.
UniProt Q0JBA9, entry or part of it: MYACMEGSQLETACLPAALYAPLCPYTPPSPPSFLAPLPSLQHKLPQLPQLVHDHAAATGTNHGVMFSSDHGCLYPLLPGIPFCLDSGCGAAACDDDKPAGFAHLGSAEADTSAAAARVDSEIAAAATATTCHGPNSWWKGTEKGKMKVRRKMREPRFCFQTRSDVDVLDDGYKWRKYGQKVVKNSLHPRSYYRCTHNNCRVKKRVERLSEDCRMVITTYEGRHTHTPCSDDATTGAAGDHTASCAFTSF

42 sequences from publication PMC7819943, “Rice protein-binding microarrays: a tool to detect cis-acting elements near promoter regions in rice” can be followed below.

This test has as its target OsWRKY34 (Oryza sativa, UniProt Q0JBA9 1-250). Briefly: protein-binding microarray (RPBM); PBS, 2% BSA, 51.3 ng/ul salmon testes DNA, 50 uM zinc acetate, 200 nM TF, 25 C, 1 h; high values mean tight binding. Particulars: protein: recombinant; tags: N-terminal polyhistidine and DsRed monomer fusion (pET32a); label: CyDye5-dUTP incorporated in the synthesized complementary strand; 3' TTTTT single-stranded linker to array surface; dsDNA, one strand shown. An outline of the steps: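 Transcription factors were made in E. coli BL21-CodonPlus as N-terminal fusions to a polyhistidine tag and DsRed, then purified on Ni–NTA. After primer extension with Cy5-dUTP and blocking with 2% BSA, a custom Agilent array was exposed for 1 h at 25 °C to 200 nM protein in PBS, 2% BSA, salmon testes DNA and 50 µM zinc acetate. Washed arrays were scanned on an Axon 4000B, and the binding signal is per-feature fluorescence intensity in arbitrary units.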
Take “ACCCTACCCTACGCCCGGATAAAATCTCGTACACATCCCGCGGAGTCACCTAGTGCAG”: the binding signal was 9210 fluorescence intensity (a.u.).
Consider “TTCACGATTGTCCCGTCGTAATTTTACACAATCCATTTTTCGGAGTCACCTAGTGCAG”, for which the binding signal is 12000 fluorescence intensity (a.u.).
Regarding “ATTGCTGACTAAACTTGTTTCTTGCCTTTAGAGTAGCTGTCGGAGTCACCTAGTGCAG”, the binding signal is 9800 fluorescence intensity (a.u.).
Next, “CCCTTCGTTTCCCACCCACCACCTCTCTCCGGCGTGCTCGCGGAGTCACCTAGTGCAG”: 8060 fluorescence intensity (a.u.); “ATGCTATCGCTCTGTCTTGAGGACTCAGCGTCGCCGCTCCCGGAGTCACCTAGTGCAG”: 8230 fluorescence intensity (a.u.); “AGCAGTGTAGAGGAGGAGGAGGCGGCGGCGGCGGCGGCGGCGGAGTCACCTAGTGCAG”: 9880 fluorescence intensity (a.u.).
As to “GTTGCAGGTTGATGGCTTGAGCACACTGTCCCCTCCACCGCGGAGTCACCTAGTGCAG”, the binding signal is 9330 fluorescence intensity (a.u.).
With “CCTGGCGTCGCCGGACCCCGTCCCGTACAAGCTGCTCGCGCGGAGTCACCTAGTGCAG”, the binding signal was 8100 fluorescence intensity (a.u.).
Take “TACTATTTTTTCTCGTATTCATTATTTTGTGCATTATTTTCGGAGTCACCTAGTGCAG”: the binding signal was 17200 fluorescence intensity (a.u.).
As to “AATCCCCGCCGCTAGTCTCGCCCACAGAAGATTCGAACACCGGAGTCACCTAGTGCAG”, the binding signal is 9200 fluorescence intensity (a.u.).
In the case of “TCCAAGCTACGACAATGGCGGCCGCCACCTTCGCCTTTATCGGAGTCACCTAGTGCAG” it was 8210 fluorescence intensity (a.u.); in that of “AGCAATTCATTTATTTCTTTTTCCAAATTCCACCTCTCATCGGAGTCACCTAGTGCAG”, 9200 fluorescence intensity (a.u.); in that of “GTTTTACTAGTTCTATATTGTACTTGCTGAGTATTCTTTACGGAGTCACCTAGTGCAG”, 9010 fluorescence intensity (a.u.).
Consider “AGTTTGTGATTGTAATGTTGTGCTACACTGTCCTTATCTTCGGAGTCACCTAGTGCAG”, for which the binding signal was 11500 fluorescence intensity (a.u.).
“CGCCCGCCGCGCGCCAATCGCCGCTCCGCCGACCTCCGGCCGGAGTCACCTAGTGCAG”: the binding signal was 14000 fluorescence intensity (a.u.).
Take “CATATTCGTTTCGTTTTTGTATTCGATAATATTTGATTGTCGGAGTCACCTAGTGCAG”: the binding signal is 8360 fluorescence intensity (a.u.).
In the case of “GAGAACATTCAATATTTGCCATTTCGTTGAATTTTTTGTACGGAGTCACCTAGTGCAG” it was 10300 fluorescence intensity (a.u.); in that of “ATTCAGTGTTACATTACTCATAGAGACCATTTGAGCTTTCCGGAGTCACCTAGTGCAG”, 8270 fluorescence intensity (a.u.).
With “CGTGATGGTCATTTTTCTTTTGACATATAATCCTGTAGAACGGAGTCACCTAGTGCAG”, the binding signal was 8150 fluorescence intensity (a.u.).
On to “CCCACCAGCTATATTTGCCAATCTTCCCCATCATAAATGACGGAGTCACCTAGTGCAG”, for which the binding signal is 8350 fluorescence intensity (a.u.).
In the case of “TGGCCCTTACACTCTGTGCTGCCTCTGCCTGTACCAATCCCGGAGTCACCTAGTGCAG” it was 10300 fluorescence intensity (a.u.); in that of “GCATTGCTAGGTTGTGTCAGTTTCTCTTTGTATGAATTTTCGGAGTCACCTAGTGCAG”, 11200 fluorescence intensity (a.u.); in that of “CATTTGACTTTTTCTATTAGTTAAAGTTATTTGGATTTGACGGAGTCACCTAGTGCAG”, 8300 fluorescence intensity (a.u.).
As to “CACCGTCCGCAACCTCGCCCAACCACCTGAGATTAGAACGCGGAGTCACCTAGTGCAG”, the binding signal is 8130 fluorescence intensity (a.u.).
Regarding “CCGCCCATTTGACTCTCGCCGTCGACGCCGCGTGCGAGTCCGGAGTCACCTAGTGCAG”, the binding signal is 8240 fluorescence intensity (a.u.).
Turning to “AAGCCACACTTTACTAGCACATTGGTCCACACGTCATACTCGGAGTCACCTAGTGCAG”, the binding signal was 8380 fluorescence intensity (a.u.).
For “GGTCCTGAACTGTTATGCATGTTTCATTTGTTGCCCCTCGCGGAGTCACCTAGTGCAG”, the binding signal was 10400 fluorescence intensity (a.u.).
With “GTATTCCAGACGTATGAGGGTTGTCATGTATGACTTGTATCGGAGTCACCTAGTGCAG”, the binding signal is 8100 fluorescence intensity (a.u.).
Next, “GGCTGTGTTTGTGTTTAGTTCACACTGAAGTTTGGAAGTTCGGAGTCACCTAGTGCAG”: 8060 fluorescence intensity (a.u.); “TCAGGCACTACTGTTGACTACAGTTGGTTAATTTTGTTGACGGAGTCACCTAGTGCAG”: 9310 fluorescence intensity (a.u.); “GCAATTGAACTACATAACAATTGTTTCGTATGTCTCTAGTCGGAGTCACCTAGTGCAG”: 9150 fluorescence intensity (a.u.).
With “TGTTTTGGATTGGGAATGGGATGCATCATCAACAGCAGCACGGAGTCACCTAGTGCAG”, the binding signal was 9390 fluorescence intensity (a.u.).
Turning to “TGTTATGCGCCGACTTGCAAAAATTCCACTGCTACGTAGCCGGAGTCACCTAGTGCAG”, the binding signal was 10200 fluorescence intensity (a.u.).
Next, “AGTTTGGCGGTAGGGAGGGCGGCGGCGGTGGATCCGAAGGCGGAGTCACCTAGTGCAG”: 8290 fluorescence intensity (a.u.); “AGGGTTTACGTGTGTGTTCATAGGGGTTAGTGTGCGAGCACGGAGTCACCTAGTGCAG”: 12100 fluorescence intensity (a.u.).
Turning to “CTACTCATAATCCTCATCGAATCGCTTCTTTCTACTACAGCGGAGTCACCTAGTGCAG”, the binding signal was 9970 fluorescence intensity (a.u.).
Take “GGTTTTGCATCTTCTTCGGCCCAACTCGTTCCTCCTCGACCGGAGTCACCTAGTGCAG”: the binding signal was 11500 fluorescence intensity (a.u.).
Next, “TCTCCCCGCATCGTCTCGCCACTGAAGCTGCCATGGCAGACGGAGTCACCTAGTGCAG”: 8240 fluorescence intensity (a.u.); “TCACACGGATGAAGATAGTTTGACCAAAACATCATCATCTCGGAGTCACCTAGTGCAG”: 8030 fluorescence intensity (a.u.); “TCTTGAGCTGCCTGTCCCGGAATCCGATTCCGAGCTCACTCGGAGTCACCTAGTGCAG”: 9810 fluorescence intensity (a.u.).
In the case of “AACCTAGGTCATGAACACCGTGTTGACTGTTCATCCGAAACGGAGTCACCTAGTGCAG” it was 10900 fluorescence intensity (a.u.).
For the sequence “ATCCTGCGATTCCACCATATCCAATCCTCGTATCTTGGGTCGGAGTCACCTAGTGCAG”, the binding signal is 8310 fluorescence intensity (a.u.).
